# Laboratory results reported in article PMC3635866.
# Chains of the proteins cited; added tags and fusions are not shown.
# UniProt Q9EP80: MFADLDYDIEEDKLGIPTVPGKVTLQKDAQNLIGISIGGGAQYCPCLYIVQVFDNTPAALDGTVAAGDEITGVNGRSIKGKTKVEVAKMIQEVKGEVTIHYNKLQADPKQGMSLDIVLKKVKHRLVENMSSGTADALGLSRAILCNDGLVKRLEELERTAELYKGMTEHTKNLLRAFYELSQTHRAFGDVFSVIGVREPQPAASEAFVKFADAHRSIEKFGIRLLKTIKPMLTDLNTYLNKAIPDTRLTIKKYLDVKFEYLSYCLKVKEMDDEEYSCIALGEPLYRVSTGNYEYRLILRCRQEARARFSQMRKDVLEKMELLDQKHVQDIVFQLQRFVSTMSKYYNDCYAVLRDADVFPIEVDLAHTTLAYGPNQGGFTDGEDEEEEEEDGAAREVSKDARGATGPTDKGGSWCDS
# These are yes or no findings as the source states them, for the method shown. In cells and extracts the contact can be indirect. Some results given as binding are weak or reduced against the parent protein; the word gives no strength.
# Target: Protein interacting with C kinase 1 (PICK1), endogenous in GH1 cells (rat (endogenous in GH1)) (UniProt Q9EP80)
# Experiment: co-IP; GH1 cell lysate (PBS + 1% Triton X-100); mouse anti-PICK1 2G10 on protein G agarose, 1 h at 4°C; washes include PBS with 1% Triton X-100 and 500 mM NaCl; blot with rabbit anti-ICA69; control: beads without antibody
binder,measurement,value
"Islet cell autoantigen 69 (ICA69), endogenous in GH1 cells (protein, UniProt Q63054 1-480) MSGHKCYSWELQDRFAQDKSVVNKMQQKYWETKQAFIKATGKKEDEHVVASDADLDAKLELFHSIQRTCLDLSKAIVLYQKRICFLSQEENELGKFLRSQGFQDKTRAGKMMQATGKALCFSSQQRLALRNPLCRFHQEVETFRHRAISDTWLTVNRMEQCRTEYRGALLWMKDVSQELDPDLYKQMEKFRKVQTQVRLAKKNFDKLKMDVCQKVDLLGASRCNLLSHMLATYQTTLLHFWEKTSHTMAAIHESFKGYQPYEFTTLKSLQDPMKKLVEKEKKKSSRRENREAVAQEPRQLISLEEENQHKESSTCQKEEGKSVPSSVDKSSADDACSGPIDELLDVKPEEACLGPMAGTPEPESGDKDDLLLLNEIFSTSSLDEGEFSREWAAVFGDDRLKEPAPMGAQGEPDPKPQIGSAFLPSQLLDQNMKDLQASLQEPAKAASDLTAWFSLFADLDPLSNPDAIGKTDKEHELLNA",binding,binds
